According to US4038222A (Hoffman-La Roche Inc., priority 1976, dated 1977):

Test: general procedure: Boc solid-phase peptide synthesis; benzhydrylamine polystyrene cross-linked with 1 to 2% divinyl benzene; anhydride couplings
Settings: whole synthesis, based on the starting resin

For “PEPTIDE1{Y.G.G.F.M.T.S.E.K.S.Q.T.P.L.V.T.L.F.K.N.A.I.I.K.N.A.H.K.K.G.Q}$$$$V2.0”, the isolated yield was 19.6% yield.

Some peptides are written in HELM: one residue between dots, names in brackets for other building blocks, links after the first $.
